Experimental findings from patent US20230346967A1 are described below.

These are yes or no findings as the source states them, for the method shown. Some entries that bind do so weakly or less than the wild type.

Experiment [1] deals with recombinant cynomolgus monkey (Macaca fascicularis) TfR1 (cynomolgus monkey (Macaca fascicularis)). As to the kind of experiment: thermal stability, binding before and after 9 days at 40 C.
The target in experiment [2] is recombinant human TfR1 (human) (UniProt P02786). Described as above.

B1: humanized anti-TfR Fab 5H12 VH5 (C33Y)/Vκ4 (Fab, V domains shown)
VH: QVQLVQSGAEVKKPGASVKVSCKASGYSFTDYYINWVRQAPGQGLEWMGWIYPGSGNTRYSERFKGRVTITRDTSASTAYMELSSLRSEDTAVYYCAREDYYPYHGMDYWGQGTLVTVSS
VL: DIVMTQSPDSLAVSLGERATINCRASESVDGYDNSFMHWYQQKPGQPPKLLIFRASNLESGVPDRFSGSGSGTDFTLTISSLQAEDVAVYYCQQSSEDPWTFGQGTKLEIKR
With B1, the binding entry in experiment [1] and in experiment [2] was “binds” in each case.
